Laboratory results: PubChem BioAssay AID1259265 (Sanger Institute, 2017)
Screen: 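Validate synthetic lethal siRNA and anchor drug combinations in colorectal cancer cells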 (follow-up of hits). Cell system: SW620 human colorectal cancer cells. Reagents: single siRNA against human genes. Conditions: anchor drug given a day after transfection: BYL719 at 1 µM, cetuximab at 5 µg/ml, trametinib at 10 nM; DMSO alone as the comparison arm. Measured: 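Viability normalised to control pool 2 (non-targeting) and averaged over replicates; synergy score compares combined siRNA and drug effect against each effect alone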. Reading the numbers: synergy score with trametinib: higher = stronger synergy (synthetic lethal) with trametinib; synergy score with BYL719: higher = stronger synergy (synthetic lethal) with BYL719; synergy score with cetuximab: higher = stronger synergy (synthetic lethal) with cetuximab. Active means: 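Synergistic (synthetic lethal) when the synergy score tops 0.10 with trametinib, BYL719 or cetuximab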.
In all, the deposit lists 160 reagents; this is an unselected part. 31 of them (19%) were called active. 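Calls refer to single siRNAs; agreement across several siRNAs per gene and other cell lines is not shown.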 The numbers tell different reagents against one gene apart. Not all columns of the deposit are shown. Not stated in the record: the amount of reagent, the time to read-out.

gene symbol | reagent no. | synergy score with trametinib | synergy score with BYL719 | synergy score with cetuximab | activity call
RPS6KA4 | 1 | 0.0273 | -0.143 | -0.0182 | inactive
RPS6KA4 | 2 | 0.0473 | -0.0498 | -0.0139 | inactive
RPS6KA4 | 3 | -0.0172 | -0.174 | -0.0166 | inactive
RPS6KA4 | 4 | 0.0929 | 0.0659 | 0.0306 | inactive
CAMK2N1 | 1 | -0.00214 | -0.0349 | -0.184 | inactive
CAMK2N1 | 2 | -0.245 | 0.197 | -0.248 | –
CAMK2N1 | 3 | -0.0464 | -0.181 | -0.215 | inactive
CAMK2N1 | 4 | -0.133 | -0.163 | -0.0592 | inactive
STK36 | 1 | -0.04 | -0.349 | -0.177 | inactive
STK36 | 2 | 0.0152 | -0.0993 | -0.0826 | inactive
STK36 | 3 | -0.0273 | -0.281 | -0.0621 | inactive
STK36 | 4 | -0.0107 | -0.132 | -0.118 | inactive
ACVR1 | 1 | -0.0551 | -0.288 | -0.122 | inactive
ACVR1 | 2 | -0.00259 | -0.211 | -0.122 | inactive
ACVR1 | 3 | -0.00433 | -0.19 | -0.122 | inactive
ACVR1 | 4 | -0.0223 | -0.263 | 0.027 | inactive
EPHA6 | 1 | 0.0811 | -0.209 | -0.0915 | inactive
EPHA6 | 2 | 0.153 | -0.0255 | 0.0578 | active
EPHA6 | 3 | 0.0831 | -0.144 | 0.077 | inactive
EPHA6 | 4 | 0.079 | 0.0103 | -0.0799 | inactive
IRAK3 | 1 | -0.00789 | -0.402 | -0.14 | inactive
IRAK3 | 2 | 0.0413 | -0.0567 | -0.063 | inactive
IRAK3 | 3 | -0.151 | -0.293 | -0.0945 | inactive
IRAK3 | 4 | -0.0198 | -0.129 | -0.118 | inactive
NR2F2 | 1 | 0.0842 | -0.194 | 0 | inactive
NR2F2 | 2 | 0.0179 | -0.128 | -0.0491 | inactive
NR2F2 | 3 | -0.113 | -0.306 | 0.0111 | inactive
NR2F2 | 4 | 0.171 | -0.0743 | -0.0971 | active
MARK3 | 1 | -0.0626 | -0.167 | -0.0494 | inactive
MARK3 | 2 | -0.0204 | -0.177 | -0.122 | inactive
MARK3 | 3 | -0.0287 | -0.372 | -0.0801 | inactive
MARK3 | 4 | 0.178 | -0.15 | -0.141 | active
BRAF | 1 | -0.00755 | -0.114 | -0.0464 | inactive
BRAF | 2 | -0.0884 | 0.0462 | -0.0615 | inactive
BRAF | 3 | -0.0121 | -0.0692 | -0.0669 | inactive
BRAF | 4 | 0.0699 | -0.0344 | -0.107 | inactive
AK2 | 1 | -0.0198 | -0.152 | 0.0318 | inactive
AK2 | 2 | 0.0367 | -0.123 | -0.117 | inactive
AK2 | 3 | -0.123 | -0.306 | -0.122 | inactive
AK2 | 4 | 0.147 | -0.0149 | 0.027 | active
CDKN2D | 1 | 0.189 | -0.106 | -0.0333 | active
CDKN2D | 2 | 0.212 | 0.11 | 0.0887 | active
CDKN2D | 3 | -0.146 | -0.306 | -0.122 | inactive
CDKN2D | 4 | -0.0334 | 0.0156 | -0.00771 | inactive
CRIM1 | 1 | -0.0995 | 0.00501 | -0.178 | inactive
CRIM1 | 2 | 0.0215 | -0.138 | -0.0169 | inactive
CRIM1 | 3 | 0.0208 | 0.088 | -0.142 | inactive
CRIM1 | 4 | 0.0711 | -0.129 | -0.0484 | inactive
IKBKB | 1 | -0.241 | -0.0829 | -0.1 | inactive
IKBKB | 2 | -0.0251 | -0.0791 | 0.0391 | inactive
IKBKB | 3 | -0.0951 | -0.275 | -0.122 | inactive
IKBKB | 4 | -0.0593 | -0.183 | -0.156 | inactive
